Z-score data for 107 sequences are collected here from PubChem BioAssay AID1508600 (Functional Genomics Laboratory (NCATS/FGL), 2020).

About 3,700 (7%) of roughly 53,000 sequences were called active.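 The calls were made as follows: active = gene knockdowns whose robust z-score for IL-1 alpha signal is at least 2 or at most -2, so actives lie on both sides; inactive = the rest.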 This is one part of the list.

This experiment is described as follows: Components of the Cytosolic LPS Sensing Pathway: Gene Identification via Genome-wide siRNA Screen.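 Also: robust z of the log signal after scaling to non-targeting control siRNA wells of the plate.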 Particulars: RAW264.7 macrophages, IL-1a HTRF, actives lie on both sides, screened at 100 nM (by protocol), cells primed 5 h with Pam3CSK4 first. The essentials: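 Mouse macrophage line RAW264.7 is transfected with siRNA (100 nM final), grown 48h, primed with TLR ligand Pam3CSK4 5 h and given intracellular LipidA 24 h. IL-1a in supernatant is read by HTRF and viability by luminescence.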
Background: In TR-FRET formats the signal depends on donor and acceptor labels being close together.
Turning to GCAGGUAAGUUAAAUGAUGTT against Ccdc148, the z-score is inactive: 0.961.

Take GGAAUAAAGCUACAUUGUUTT against Arhgap11a: the z-score was inactive: -0.364.

On to GGGCCUUGAGCUCUAUUUATT against Derl3, for which the z-score is inactive: -0.485.

As to CGGGAUCAGGUUUCACUGATT against Mettl25, the z-score is inactive: -1.

On to CCAGGUGUACGUCCUACAATT against Pofut2, for which the z-score is inactive: 0.543.

For CCUUGGCAGGUAUAGUGUUTT against Klk9, the z-score is inactive: -1.09.

As to GGUGUUUACUAGUUUCUGATT against Neurod6, the z-score was inactive: -0.593.

Regarding CGCCCUGUUUGGUGAACUUTT against Pcdhga2, the z-score is inactive: 0.196.

Regarding GCUAAAGUUCCAAUAUGGGTT against Mepce, the z-score is inactive: -0.162.

Regarding GGGCUAUCCUUCUGAAUUUTT against Csnk1d, the z-score is inactive: 1.46.

Turning to “GUGCAAACGGCAAACAUUCTT against 1700001G17Rik”, the z-score is inactive: 1.89.

Take GGAACGGAUUCUAUCCAAUTT against Omt2b: the z-score was inactive: -0.229.

Regarding GGAACACUUGGGAUCCAGATT against Tmem62, the z-score was inactive: -1.05.

As to AUCCAUUUUGUGCUAGGCATT against Cacfd1, the z-score was inactive: 0.473.

As for CAAACUGGGUCCCAAUGAATT against Ndufa4, the z-score was active: 2.7.

For GGUAGAAUUGUGAUCUCAGTT against Bco2, the z-score is inactive: -0.411.

As for GUGGUGGGAUACACCAACUTT against Gtpbp6, the z-score is inactive: -0.0236.

As for GGACUUUGUGAAGGACUCUTT against Gatd1, the z-score was active: -2.56.

CGUGCUAGUGACCAUUUACTT against Limch1: the z-score is inactive: 0.625.

GCUCCUCAUUAAGGCUGUCTT against Mybphl: the z-score was inactive: -1.41.

Regarding GGGAGCUCUAAAAAAAGUGTT against Olfr390, the z-score was inactive: 1.72.

Consider GGGAGAAAAUCCAUUAUAUTT against Hecw1, for which the z-score was inactive: 1.87.

Take GCAAAGGAACGAGUUUGAGTT against Ucma: the z-score was inactive: 0.41.

For the sequence GCUGAACAACGAUUGCUCATT against Lypd1, the z-score is inactive: -0.782.

Consider GGACGUAAUCAACAUAGCUTT against Zbtb40, for which the z-score is inactive: -0.545.

On to GGGAAGGUAUAAGACCUUUTT against Olfr509, for which the z-score was inactive: 0.9.

In the case of GCCUUCUGUUGGUUAAUACTT against Tsc22d3, the z-score was inactive: 1.23.

With GCCUUUAGCUCCAUUCACUTT against Zfyve1, the z-score was inactive: -1.89.

For GCUACAAUCUUUUAGGUCUTT against Tcta, the z-score was inactive: -0.52.

On to GCAACCAUCGUAGCAGAUCTT against Aaas, for which the z-score was inactive: 1.54.

On to GCUGUUUGAAGCUGAUACCTT against Fads3, for which the z-score is inactive: -0.0526.

Regarding GAGAAUGCUUCAGUGGUGATT against Pcdha9, the z-score is inactive: 0.366.

On to GCAGCGAAGAUUUUAAUUCTT against Rerg, for which the z-score was inactive: 0.968.

For the sequence GGAGACUGGAUUUUUGGUATT against Ccr1l1, the z-score was inactive: 0.131.

With GGCUAUCUACAAAAUGGUGTT against Vsnl1, the z-score is inactive: -1.31.

On to GCCACAAUUUUACUUGGUATT against Ap4s1, for which the z-score is inactive: 0.371.

Regarding GCACUAGCAGGAUUCAUUGTT against Gabrb2, the z-score is inactive: -1.25.

As for GCUCAACAGCAGUGACGAUTT against Nras, the z-score is inactive: -0.701.

On to GGAAUCAAAGGUCAAGCCATT against Rnf181, for which the z-score is active: 2.17.

Take GGGAUCACAAUGAAGAAAUTT against Chgb: the z-score was inactive: -0.46.

As for GCUCCAAUGAGAUCAUUCUTT against Gemin6, the z-score was inactive: 0.105.

GCUCCAUACUCCGGAUCAGTT against Ftl2-ps: the z-score is inactive: -1.57.

Regarding GGAUAUCCACAGAAAAGGGTT against Chst8, the z-score was inactive: -0.729.

Regarding GGAAGAACUAGAGUCAUAUTT against Eps8l1, the z-score was inactive: -0.0721.

CCAUCUUACAGAUUACCAATT against Slc25a46: the z-score is inactive: -0.576.

For the sequence GGACAAUGUGGACUUUGAUTT against Edem2, the z-score was active: -2.33.

Regarding GGGAAGGGAUCCUAUAUUUTT against Lsm12, the z-score was inactive: 0.158.

With CCUCAAAUCAGCUAACUCATT against Mocs1, the z-score is inactive: -0.366.

In the case of GCCGUUAUUGCAUUUGGACTT against Tspan2, the z-score is inactive: 0.739.

Turning to GGAUGAUGAAUUCACACACTT against Calr, the z-score was active: 3.18.

In the case of GGGUGGCUAUGGACAAAAATT against Arl5c, the z-score is inactive: 0.887.

Turning to GAGCUUCUAAUUCACCCUATT against Abcc6, the z-score was inactive: 0.181.

On to GCACUGGUCACUAAUUAUATT against Fabp7, for which the z-score is inactive: 0.163.

In the case of GGACUGUGAACAACUUUCGTT against Tcim, the z-score was inactive: -1.07.

Turning to GGCCAGCUUACCAUUGAUCTT against Acadvl, the z-score was inactive: 1.88.

On to UUGAAAAGUUCGGAACUGATT against Cd300lb, for which the z-score is inactive: -0.308.

For CGCCUUAUGACAUCCGAUUTT against Dntt, the z-score is inactive: 0.997.

In the case of GCUUGCAUUCAUUUCAUACTT against Ezh2, the z-score is inactive: 1.27.

On to CACCAAGGUCUGAGUACCUTT against Gm5622, for which the z-score is inactive: 0.755.

For CCGACGUAGAGAAAAGGGATT against Chchd1, the z-score was inactive: -1.8.

With GGCUACAAAUCCAACUAUCTT against Ppp1r32, the z-score was inactive: 0.181.

Regarding GGAGUUUAUGAAUUUGUUCTT against Etfdh, the z-score was inactive: -0.0149.

For GGGCACAACUUCAACAGCUTT against Cmtm8, the z-score was inactive: -1.76.

On to GCAACAUUCGAGCUGGAAATT against Snd1, for which the z-score is inactive: 1.02.

With GCUCUGUGGCCGAAUUCAUTT against Olfr518, the z-score is inactive: 1.04.

For the sequence GCUUGCACUGGACUCAACUTT against Pax4, the z-score was active: -2.76.

For GGAGUCAAAAAUGCAUUCATT against Dock6, the z-score is inactive: -0.561.

As to “GGCUAGCACUGUUUUUACCTT against 1700123O20Rik”, the z-score was inactive: 0.194.

As for GCUGUUGGUUUCUACUCACTT against Adam21, the z-score is inactive: -0.0536.

Regarding GCAAAGACCACACCAUACATT against Otol1, the z-score is inactive: 0.0397.

As for GAUCCAUUUCACGUUGAUUTT against Gadd45g, the z-score is inactive: -0.38.

On to GGGUCAUUAAUGAUGGGCCTT against Pmel, for which the z-score was inactive: 0.254.

As for GGAUGGUAUUCCUAACCAGTT against Cdk20, the z-score is inactive: -0.314.

As for GGACUGAGGAAGAAUUUAATT against Pdia3, the z-score was inactive: -1.2.

Regarding CGAGAAAAAGACCAUAGUUTT against Btbd10, the z-score was inactive: 0.689.

Turning to GGUCAAGACUGAACUGUGATT against Pcyox1l, the z-score is inactive: -0.974.

Consider CCCUAACUAAUGAUUCAGATT against Klri1, for which the z-score was inactive: 0.0429.

With GCUUUUCAGCAUGGAUUUATT against Dennd5a, the z-score is inactive: -0.505.

As to GCGGAUUCAGCUGAUGAUGTT against Sash1, the z-score is inactive: -1.32.

Consider GGAAAUUGCCAGUAAGGUGTT against Sord, for which the z-score is inactive: 1.44.

With GGCAUUUUUCUUCUCCAAATT against Clns1a, the z-score was inactive: 0.253.

As to GGUUCACUCCUGAUACCACTT against Ddo, the z-score was inactive: 1.29.

As to GGGUAUGGGAGGACUUUUGTT against Vmn1r58, the z-score is inactive: -1.27.

For the sequence CCCACUUAUAUAUGUAGUUTT against Wdyhv1, the z-score was inactive: 0.282.

Regarding GCAUGGUAAAAUGCUUAAGTT against Dlst, the z-score is inactive: 0.344.

In the case of GCAAAUAGUAUUCCUUUGGTT against Akap8, the z-score was inactive: 0.343.

CCAUUUUUACCUACAUCCATT against Olfr452: the z-score was active: 2.43.

In the case of GCAUGACAAGAGCUAGUUUTT against Olfr564, the z-score was inactive: -0.427.

On to GGAGGAAGUUGAAAAUGAATT against Myom2, for which the z-score is inactive: 0.157.

On to GUCAGAGAAGCAUCCAGGATT against Pisd-ps1, for which the z-score is inactive: -1.86.

As for GCAAAUCUACCUCUUCGGGTT against Cdsn, the z-score was inactive: 0.289.

With GGAAACGGCAUAGUGCUAUTT against Mrgprb4, the z-score is inactive: 1.88.

For the sequence GCCUCAAAUGCAUACAUACTT against Nr2e1, the z-score was inactive: -0.676.

In the case of CGGACUCGAAAGAAGGAAUTT against Srfbp1, the z-score was inactive: -0.841.

GGAAGAAAAGCAGGAAGCUTT against Hmgn3: the z-score is inactive: -0.806.

On to GCCCGACAUCAUGAUUGUUTT against Gne, for which the z-score was inactive: 0.246.

For the sequence GGCACAGUUCCUCAGUAUGTT against Hspbap1, the z-score was inactive: 1.76.

Turning to CCAUUCUGAAAGUUUCAUCTT against Olfr350, the z-score is inactive: -0.303.

Take CCUAGUUAGAGUAAUUAGGTT against Mras: the z-score is inactive: -0.0693.

In the case of GGCGAAAACGGUAAAGCCUTT against H1f4, the z-score was inactive: 0.448.

On to GCGGGUGAAAUACACCAAGTT against Trim28, for which the z-score was active: -2.2.

As for GGAAUAGUCAACUUGGUAUTT against Ndc80, the z-score is inactive: 0.153.

GGACCUCUGUUUCCAGGAGTT against G6pc3: the z-score was inactive: 0.54.

In the case of GCAGACAAUAUCUCUGAAUTT against Olfr459, the z-score was inactive: -0.942.

With GGUGGAUUUUAAGUUUCCUTT against Aurkc, the z-score is active: 3.43.

Consider CGAUUCCCUGGUUAUGACUTT against Rpl5, for which the z-score was inactive: -0.669.

As for GGGAUUUUACUCAGGAUUATT against Sycp2, the z-score was inactive: 0.781.
